Measurements from article PMC11162808.

Sequences of proteins named here, by UniProt entry; tags and fusion partners are left off.
UniProt O14497: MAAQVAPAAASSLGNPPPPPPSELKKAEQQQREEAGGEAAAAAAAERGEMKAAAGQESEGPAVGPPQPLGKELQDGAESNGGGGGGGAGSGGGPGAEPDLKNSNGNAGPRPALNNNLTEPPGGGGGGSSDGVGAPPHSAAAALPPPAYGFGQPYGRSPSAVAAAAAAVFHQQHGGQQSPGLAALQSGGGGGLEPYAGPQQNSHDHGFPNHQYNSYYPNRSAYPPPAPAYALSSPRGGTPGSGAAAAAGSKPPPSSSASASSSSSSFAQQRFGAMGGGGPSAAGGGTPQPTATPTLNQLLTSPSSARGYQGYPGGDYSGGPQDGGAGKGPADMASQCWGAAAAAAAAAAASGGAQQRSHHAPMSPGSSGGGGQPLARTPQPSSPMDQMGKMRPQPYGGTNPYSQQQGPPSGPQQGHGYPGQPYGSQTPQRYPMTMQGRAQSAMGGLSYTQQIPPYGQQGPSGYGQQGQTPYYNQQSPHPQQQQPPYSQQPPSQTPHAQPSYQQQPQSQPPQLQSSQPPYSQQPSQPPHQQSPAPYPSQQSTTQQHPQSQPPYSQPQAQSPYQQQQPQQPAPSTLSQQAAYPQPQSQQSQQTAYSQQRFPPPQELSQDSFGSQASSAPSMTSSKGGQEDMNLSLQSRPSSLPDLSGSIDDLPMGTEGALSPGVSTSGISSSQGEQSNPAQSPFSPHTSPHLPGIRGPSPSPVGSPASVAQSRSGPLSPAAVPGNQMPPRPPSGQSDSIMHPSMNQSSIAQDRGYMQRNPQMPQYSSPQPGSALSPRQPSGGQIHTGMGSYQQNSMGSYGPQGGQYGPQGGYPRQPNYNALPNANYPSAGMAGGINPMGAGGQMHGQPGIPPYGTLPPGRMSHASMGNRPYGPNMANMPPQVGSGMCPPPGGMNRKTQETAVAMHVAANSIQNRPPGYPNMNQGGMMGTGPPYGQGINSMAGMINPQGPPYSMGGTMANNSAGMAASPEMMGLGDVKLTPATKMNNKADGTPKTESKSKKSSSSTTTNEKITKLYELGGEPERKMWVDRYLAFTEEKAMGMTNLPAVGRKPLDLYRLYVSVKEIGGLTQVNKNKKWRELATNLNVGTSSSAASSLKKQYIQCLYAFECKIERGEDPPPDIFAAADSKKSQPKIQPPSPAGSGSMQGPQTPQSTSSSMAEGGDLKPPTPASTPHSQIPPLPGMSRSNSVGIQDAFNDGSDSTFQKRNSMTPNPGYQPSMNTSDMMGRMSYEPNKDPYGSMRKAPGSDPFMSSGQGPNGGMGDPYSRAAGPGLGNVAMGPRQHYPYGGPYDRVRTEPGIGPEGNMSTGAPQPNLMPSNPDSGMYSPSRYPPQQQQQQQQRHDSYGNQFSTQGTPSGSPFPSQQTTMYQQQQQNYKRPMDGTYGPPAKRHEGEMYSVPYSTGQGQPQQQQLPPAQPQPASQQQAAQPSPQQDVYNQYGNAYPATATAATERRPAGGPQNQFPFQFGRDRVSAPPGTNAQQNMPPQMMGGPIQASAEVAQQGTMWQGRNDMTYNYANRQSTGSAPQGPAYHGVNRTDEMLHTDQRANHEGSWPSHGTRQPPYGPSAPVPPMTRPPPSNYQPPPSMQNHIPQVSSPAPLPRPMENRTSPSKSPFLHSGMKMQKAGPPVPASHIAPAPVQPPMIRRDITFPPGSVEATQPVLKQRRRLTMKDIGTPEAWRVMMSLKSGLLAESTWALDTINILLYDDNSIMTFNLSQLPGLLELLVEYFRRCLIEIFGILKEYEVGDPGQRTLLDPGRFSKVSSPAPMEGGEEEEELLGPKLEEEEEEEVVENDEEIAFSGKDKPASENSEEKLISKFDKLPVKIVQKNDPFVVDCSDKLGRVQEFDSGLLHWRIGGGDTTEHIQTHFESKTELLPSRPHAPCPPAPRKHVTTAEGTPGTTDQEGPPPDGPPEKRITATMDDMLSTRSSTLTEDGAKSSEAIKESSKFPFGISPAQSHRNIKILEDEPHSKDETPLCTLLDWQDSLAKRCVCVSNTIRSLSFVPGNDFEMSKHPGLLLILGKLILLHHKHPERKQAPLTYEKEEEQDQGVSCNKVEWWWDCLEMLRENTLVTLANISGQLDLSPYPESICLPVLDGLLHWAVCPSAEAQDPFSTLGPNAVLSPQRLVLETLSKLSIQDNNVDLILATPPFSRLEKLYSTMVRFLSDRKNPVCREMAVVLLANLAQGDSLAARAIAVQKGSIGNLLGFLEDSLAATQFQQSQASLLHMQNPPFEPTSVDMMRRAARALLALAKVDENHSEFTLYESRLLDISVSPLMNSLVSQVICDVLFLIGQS

Key:
[1] = biological target: AT-rich interaction domain protein 1A (ARID1A) (human (endogenous in the paper's human cell lines; the line used for the IP is not stated)), O14497; assay: affinity purification with mass spectrometry; IP with anti-ARID1A (anti-IgG as control) from 1.5-2 mg benzonase-treated nuclear lysate (300 mM NaCl, 20 mM HEPES pH 7.5), protein A/G magnetic beads, washes with TBST; on-bead digest, label-free quantification, FDR <0.05, log2 fold change >2; conditions: remark: other sources report otherwise
[2] = biological target: AT-rich interaction domain protein 1A (ARID1A) (human (endogenous in the paper's human cell lines; the line used for the IP is not stated)) (UniProt O14497); assay: as above

B1: SCC1/RAD21, O60216 1-631 (protein)
chain: MFYAHFVLSKRGPLAKIWLAAHWDKKLTKAHVFECNLESSVESIISPKVKMALRTSGHLLLGVVRIYHRKAKYLLADCNEAFIKIKMAFRPGVVDLPEENREAAYNAITLPEEFHDFDQPLPDLDDIDVAQQFSLNQSRVEEITMREEVGNISILQENDFGDFGMDDREIMREGSAFEDDDMLVSTTTSNLLLESEQSTSNLNEKINHLEYEDQYKDDNFGEGNDGGILDDKLISNNDGGIFDDPPALSEAGVMLPEQPAHDDMDEDDNVSMGGPDSPDSVDPVEPMPTMTDQTTLVPNEEEAFALEPIDITVKETKAKRKRKLIVDSVKELDSKTIRAQLSDYSDIVTTLDLAPPTKKLMMWKETGGVEKLFSLPAQPLWNNRLLKLFTRCLTPLVPEDLRKRRKGGEADNLDEFLKEFENPEVPREDQQQQHQQRDVIDEPIIEEPSRLQESVMEASRTNIDESAMPPPPPQGVKRKAGQIDPEPVMPPQQVEQMEIPPVELPPEEPPNICQLIPELELLPEKEKEKEKEKEDDEEEEDEDASGGDQDQEERRWNKRTQQMLHGLQRALAKTGAESISLLELCRNTNRKQAAAKFYSFLVLKKQQAIELTQEEPYSDIIATPGPRFHII
- binding [1]: binds

B2: CTCF insulator protein, P49711 1-727 (protein)
chain: MEGDAVEAIVEESETFIKGKERKTYQRRREGGQEEDACHLPQNQTDGGEVVQDVNSSVQMVMMEQLDPTLLQMKTEVMEGTVAPEAEAAVDDTQIITLQVVNMEEQPINIGELQLVQVPVPVTVPVATTSVEELQGAYENEVSKEGLAESEPMICHTLPLPEGFQVVKVGANGEVETLEQGELPPQEDPSWQKDPDYQPPAKKTKKTKKSKLRYTEEGKDVDVSVYDFEEEQQEGLLSEVNAEKVVGNMKPPKPTKIKKKGVKKTFQCELCSYTCPRRSNLDRHMKSHTDERPHKCHLCGRAFRTVTLLRNHLNTHTGTRPHKCPDCDMAFVTSGELVRHRRYKHTHEKPFKCSMCDYASVEVSKLKRHIRSHTGERPFQCSLCSYASRDTYKLKRHMRTHSGEKPYECYICHARFTQSGTMKMHILQKHTENVAKFHCPHCDTVIARKSDLGVHLRKQHSYIEQGKKCRYCDAVFHERYALIQHQKSHKNEKRFKCDQCDYACRQERHMIMHKRTHTGEKPYACSHCDKTFRQKQLLDMHFKRYHDPNFVPAAFVCSKCGKTFTRRNTMARHADNCAGPDGVEGENGGETKKSKRGRKRKMRSKKEDSSDSENAEPDLDDNEDEEEPAVEIEPEPEPQPVTPAPPPAKKRRGRPPGRTNQPKQNQPTAIIQVEDQNTGAIENIIVEVKKEPDAEPAEGEEEEAQPAATDAPNGDLTPEMILSMMDR
- binding [1]: binds

B3: RSF1 (protein, UniProt Q96T23 1-1441)
chain: MATAAAAAAVMAPPGCPGSCPNFAVVCSFLERYGPLLDLPELPFPELERVLQAPPPDVGNGEVPKELVELHLKLMRKIGKSVTADRWEKYLIKICQEFNSTWAWEMEKKGYLEMSVECKLALLKYLCECQFDDNLKFKNIINEEDADTMRLQPIGRDKDGLMYWYQLDQDHNVRMYIEEQDDQDGSSWKCIVRNRNELAETLALLKAQIDPVLLKNSSQQDNSSRESPSLEDEETKKEEETPKQEEQKESEKMKSEEQPMDLENRSTANVLEETTVKKEKEDEKELVKLPVIVKLEKPLPENEEKKIIKEESDSFKENVKPIKVEVKECRADPKDTKSSMEKPVAQEPERIEFGGNIKSSHEITEKSTEETEKLKNDQQAKIPLKKREIKLSDDFDSPVKGPLCKSVTPTKEFLKDEIKQEEETCKRISTITALGHEGKQLVNGEVSDERVAPNFKTEPIETKFYETKEESYSPSKDRNIITEGNGTESLNSVITSMKTGELEKETAPLRKDADSSISVLEIHSQKAQIEEPDPPEMETSLDSSEMAKDLSSKTALSSTESCTMKGEEKSPKTKKDKRPPILECLEKLEKSKKTFLDKDAQRLSPIPEEVPKSTLESEKPGSPEAAETSPPSNIIDHCEKLASEKEVVECQSTSTVGGQSVKKVDLETLKEDSEFTKVEMDNLDNAQTSGIEEPSETKGSMQKSKFKYKLVPEEETTASENTEITSERQKEGIKLTIRISSRKKKPDSPPKVLEPENKQEKTEKEEEKTNVGRTLRRSPRISRPTAKVAEIRDQKADKKRGEGEDEVEEESTALQKTDKKEILKKSEKDTNSKVSKVKPKGKVRWTGSRTRGRWKYSSNDESEGSGSEKSSAASEEEEEKESEEAILADDDEPCKKCGLPNHPELILLCDSCDSGYHTACLRPPLMIIPDGEWFCPPCQHKLLCEKLEEQLQDLDVALKKKERAERRKERLVYVGISIENIIPPQEPDFSEDQEEKKKDSKKSKANLLERRSTRTRKCISYRFDEFDEAIDEAIEDDIKEADGGGVGRGKDISTITGHRGKDISTILDEERKENKRPQRAAAARRKKRRRLNDLDSDSNLDEEESEDEFKISDGSQDEFVVSDENPDESEEDPPSNDDSDTDFCSRRLRRHPSRPMRQSRRLRRKTPKKKYSDDDEEEESEENSRDSESDFSDDFSDDFVETRRRRSRRNQKRQINYKEDSESDGSQKSLRRGKEIRRVHKRRLSSSESEESYLSKNSEDDELAKESKRSVRKRGRSTDEYSEADEEEEEEEGKPSRKRLHRIETDEEESCDNAHGDANQPARDSQPRVLPSEQESTKKPYRIESDEEEDFENVGKVGSPLDYSLVDLPSTNGQSPGKAIENLIGKPTEKSQTPKDNSTASASLASNGTSGGQEAGAPEEEEDELLRVTDLVDYVCNSEQL
- binding [2]: binds

These are yes or no findings as the source states them, for the method shown. Binding seen in cells or lysates may run through a third protein. These calls come from enrichment with a bait or labelling near it, and not all partners need be listed.
